Results: PMC9870865
These are yes or no findings as the source states them, for the method shown. Binding seen in cells or lysates may run through a third protein. These calls come from enrichment with a bait or labelling near it, and not all partners need be listed. For some of these results: Where a sequence is shown, tags or fusion partners need not be part of it. Values belong to the molecule of their own block, whether it stands above or below them.

Protein sequences, listed by entry. Tags and fused reporters are not part of them.
UniProt Q99873: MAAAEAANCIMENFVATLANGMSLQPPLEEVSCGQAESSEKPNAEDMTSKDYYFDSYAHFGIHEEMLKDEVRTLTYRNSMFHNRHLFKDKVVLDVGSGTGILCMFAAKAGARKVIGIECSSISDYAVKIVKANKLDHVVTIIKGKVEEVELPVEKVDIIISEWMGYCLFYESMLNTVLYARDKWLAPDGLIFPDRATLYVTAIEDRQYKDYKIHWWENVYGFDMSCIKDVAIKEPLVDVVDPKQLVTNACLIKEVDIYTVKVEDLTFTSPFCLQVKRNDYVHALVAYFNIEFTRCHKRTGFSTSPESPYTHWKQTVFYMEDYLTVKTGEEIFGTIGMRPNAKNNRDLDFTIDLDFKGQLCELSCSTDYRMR
UniProt P13010: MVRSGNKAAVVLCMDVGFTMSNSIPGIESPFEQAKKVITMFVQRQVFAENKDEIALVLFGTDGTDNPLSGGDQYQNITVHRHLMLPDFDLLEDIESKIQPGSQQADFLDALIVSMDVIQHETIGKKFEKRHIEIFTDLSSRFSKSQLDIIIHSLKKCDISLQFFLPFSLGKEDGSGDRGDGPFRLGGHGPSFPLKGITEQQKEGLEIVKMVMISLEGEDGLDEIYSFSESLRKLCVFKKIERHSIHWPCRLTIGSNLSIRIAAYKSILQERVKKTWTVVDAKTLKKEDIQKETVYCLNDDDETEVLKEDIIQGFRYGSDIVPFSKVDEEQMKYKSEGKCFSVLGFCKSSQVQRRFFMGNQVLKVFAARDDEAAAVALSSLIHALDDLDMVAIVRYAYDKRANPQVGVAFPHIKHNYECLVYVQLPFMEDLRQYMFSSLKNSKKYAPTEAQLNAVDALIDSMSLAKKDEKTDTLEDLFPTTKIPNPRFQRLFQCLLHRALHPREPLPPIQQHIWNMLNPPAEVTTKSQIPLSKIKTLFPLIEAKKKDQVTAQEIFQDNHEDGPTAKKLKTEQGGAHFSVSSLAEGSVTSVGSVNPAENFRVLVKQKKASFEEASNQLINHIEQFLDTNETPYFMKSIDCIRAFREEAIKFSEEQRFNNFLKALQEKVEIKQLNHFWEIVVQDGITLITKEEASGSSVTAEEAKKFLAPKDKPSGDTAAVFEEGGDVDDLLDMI
UniProt P12956: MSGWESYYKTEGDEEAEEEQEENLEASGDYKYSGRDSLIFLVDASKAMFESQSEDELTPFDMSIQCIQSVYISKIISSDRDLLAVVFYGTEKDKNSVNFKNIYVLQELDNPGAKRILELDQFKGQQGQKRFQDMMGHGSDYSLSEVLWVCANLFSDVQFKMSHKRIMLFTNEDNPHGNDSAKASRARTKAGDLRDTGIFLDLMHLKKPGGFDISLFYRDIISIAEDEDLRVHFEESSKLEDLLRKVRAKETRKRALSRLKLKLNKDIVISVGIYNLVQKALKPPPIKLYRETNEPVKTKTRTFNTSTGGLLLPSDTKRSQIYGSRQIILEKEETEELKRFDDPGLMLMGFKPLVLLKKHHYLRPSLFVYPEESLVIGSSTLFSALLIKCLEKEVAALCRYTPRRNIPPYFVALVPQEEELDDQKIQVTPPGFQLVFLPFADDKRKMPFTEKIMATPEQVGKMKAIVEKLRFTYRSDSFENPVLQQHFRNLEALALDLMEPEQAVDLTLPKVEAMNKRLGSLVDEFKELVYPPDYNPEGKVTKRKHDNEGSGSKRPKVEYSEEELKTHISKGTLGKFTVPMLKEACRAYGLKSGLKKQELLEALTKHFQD
UniProt P78527: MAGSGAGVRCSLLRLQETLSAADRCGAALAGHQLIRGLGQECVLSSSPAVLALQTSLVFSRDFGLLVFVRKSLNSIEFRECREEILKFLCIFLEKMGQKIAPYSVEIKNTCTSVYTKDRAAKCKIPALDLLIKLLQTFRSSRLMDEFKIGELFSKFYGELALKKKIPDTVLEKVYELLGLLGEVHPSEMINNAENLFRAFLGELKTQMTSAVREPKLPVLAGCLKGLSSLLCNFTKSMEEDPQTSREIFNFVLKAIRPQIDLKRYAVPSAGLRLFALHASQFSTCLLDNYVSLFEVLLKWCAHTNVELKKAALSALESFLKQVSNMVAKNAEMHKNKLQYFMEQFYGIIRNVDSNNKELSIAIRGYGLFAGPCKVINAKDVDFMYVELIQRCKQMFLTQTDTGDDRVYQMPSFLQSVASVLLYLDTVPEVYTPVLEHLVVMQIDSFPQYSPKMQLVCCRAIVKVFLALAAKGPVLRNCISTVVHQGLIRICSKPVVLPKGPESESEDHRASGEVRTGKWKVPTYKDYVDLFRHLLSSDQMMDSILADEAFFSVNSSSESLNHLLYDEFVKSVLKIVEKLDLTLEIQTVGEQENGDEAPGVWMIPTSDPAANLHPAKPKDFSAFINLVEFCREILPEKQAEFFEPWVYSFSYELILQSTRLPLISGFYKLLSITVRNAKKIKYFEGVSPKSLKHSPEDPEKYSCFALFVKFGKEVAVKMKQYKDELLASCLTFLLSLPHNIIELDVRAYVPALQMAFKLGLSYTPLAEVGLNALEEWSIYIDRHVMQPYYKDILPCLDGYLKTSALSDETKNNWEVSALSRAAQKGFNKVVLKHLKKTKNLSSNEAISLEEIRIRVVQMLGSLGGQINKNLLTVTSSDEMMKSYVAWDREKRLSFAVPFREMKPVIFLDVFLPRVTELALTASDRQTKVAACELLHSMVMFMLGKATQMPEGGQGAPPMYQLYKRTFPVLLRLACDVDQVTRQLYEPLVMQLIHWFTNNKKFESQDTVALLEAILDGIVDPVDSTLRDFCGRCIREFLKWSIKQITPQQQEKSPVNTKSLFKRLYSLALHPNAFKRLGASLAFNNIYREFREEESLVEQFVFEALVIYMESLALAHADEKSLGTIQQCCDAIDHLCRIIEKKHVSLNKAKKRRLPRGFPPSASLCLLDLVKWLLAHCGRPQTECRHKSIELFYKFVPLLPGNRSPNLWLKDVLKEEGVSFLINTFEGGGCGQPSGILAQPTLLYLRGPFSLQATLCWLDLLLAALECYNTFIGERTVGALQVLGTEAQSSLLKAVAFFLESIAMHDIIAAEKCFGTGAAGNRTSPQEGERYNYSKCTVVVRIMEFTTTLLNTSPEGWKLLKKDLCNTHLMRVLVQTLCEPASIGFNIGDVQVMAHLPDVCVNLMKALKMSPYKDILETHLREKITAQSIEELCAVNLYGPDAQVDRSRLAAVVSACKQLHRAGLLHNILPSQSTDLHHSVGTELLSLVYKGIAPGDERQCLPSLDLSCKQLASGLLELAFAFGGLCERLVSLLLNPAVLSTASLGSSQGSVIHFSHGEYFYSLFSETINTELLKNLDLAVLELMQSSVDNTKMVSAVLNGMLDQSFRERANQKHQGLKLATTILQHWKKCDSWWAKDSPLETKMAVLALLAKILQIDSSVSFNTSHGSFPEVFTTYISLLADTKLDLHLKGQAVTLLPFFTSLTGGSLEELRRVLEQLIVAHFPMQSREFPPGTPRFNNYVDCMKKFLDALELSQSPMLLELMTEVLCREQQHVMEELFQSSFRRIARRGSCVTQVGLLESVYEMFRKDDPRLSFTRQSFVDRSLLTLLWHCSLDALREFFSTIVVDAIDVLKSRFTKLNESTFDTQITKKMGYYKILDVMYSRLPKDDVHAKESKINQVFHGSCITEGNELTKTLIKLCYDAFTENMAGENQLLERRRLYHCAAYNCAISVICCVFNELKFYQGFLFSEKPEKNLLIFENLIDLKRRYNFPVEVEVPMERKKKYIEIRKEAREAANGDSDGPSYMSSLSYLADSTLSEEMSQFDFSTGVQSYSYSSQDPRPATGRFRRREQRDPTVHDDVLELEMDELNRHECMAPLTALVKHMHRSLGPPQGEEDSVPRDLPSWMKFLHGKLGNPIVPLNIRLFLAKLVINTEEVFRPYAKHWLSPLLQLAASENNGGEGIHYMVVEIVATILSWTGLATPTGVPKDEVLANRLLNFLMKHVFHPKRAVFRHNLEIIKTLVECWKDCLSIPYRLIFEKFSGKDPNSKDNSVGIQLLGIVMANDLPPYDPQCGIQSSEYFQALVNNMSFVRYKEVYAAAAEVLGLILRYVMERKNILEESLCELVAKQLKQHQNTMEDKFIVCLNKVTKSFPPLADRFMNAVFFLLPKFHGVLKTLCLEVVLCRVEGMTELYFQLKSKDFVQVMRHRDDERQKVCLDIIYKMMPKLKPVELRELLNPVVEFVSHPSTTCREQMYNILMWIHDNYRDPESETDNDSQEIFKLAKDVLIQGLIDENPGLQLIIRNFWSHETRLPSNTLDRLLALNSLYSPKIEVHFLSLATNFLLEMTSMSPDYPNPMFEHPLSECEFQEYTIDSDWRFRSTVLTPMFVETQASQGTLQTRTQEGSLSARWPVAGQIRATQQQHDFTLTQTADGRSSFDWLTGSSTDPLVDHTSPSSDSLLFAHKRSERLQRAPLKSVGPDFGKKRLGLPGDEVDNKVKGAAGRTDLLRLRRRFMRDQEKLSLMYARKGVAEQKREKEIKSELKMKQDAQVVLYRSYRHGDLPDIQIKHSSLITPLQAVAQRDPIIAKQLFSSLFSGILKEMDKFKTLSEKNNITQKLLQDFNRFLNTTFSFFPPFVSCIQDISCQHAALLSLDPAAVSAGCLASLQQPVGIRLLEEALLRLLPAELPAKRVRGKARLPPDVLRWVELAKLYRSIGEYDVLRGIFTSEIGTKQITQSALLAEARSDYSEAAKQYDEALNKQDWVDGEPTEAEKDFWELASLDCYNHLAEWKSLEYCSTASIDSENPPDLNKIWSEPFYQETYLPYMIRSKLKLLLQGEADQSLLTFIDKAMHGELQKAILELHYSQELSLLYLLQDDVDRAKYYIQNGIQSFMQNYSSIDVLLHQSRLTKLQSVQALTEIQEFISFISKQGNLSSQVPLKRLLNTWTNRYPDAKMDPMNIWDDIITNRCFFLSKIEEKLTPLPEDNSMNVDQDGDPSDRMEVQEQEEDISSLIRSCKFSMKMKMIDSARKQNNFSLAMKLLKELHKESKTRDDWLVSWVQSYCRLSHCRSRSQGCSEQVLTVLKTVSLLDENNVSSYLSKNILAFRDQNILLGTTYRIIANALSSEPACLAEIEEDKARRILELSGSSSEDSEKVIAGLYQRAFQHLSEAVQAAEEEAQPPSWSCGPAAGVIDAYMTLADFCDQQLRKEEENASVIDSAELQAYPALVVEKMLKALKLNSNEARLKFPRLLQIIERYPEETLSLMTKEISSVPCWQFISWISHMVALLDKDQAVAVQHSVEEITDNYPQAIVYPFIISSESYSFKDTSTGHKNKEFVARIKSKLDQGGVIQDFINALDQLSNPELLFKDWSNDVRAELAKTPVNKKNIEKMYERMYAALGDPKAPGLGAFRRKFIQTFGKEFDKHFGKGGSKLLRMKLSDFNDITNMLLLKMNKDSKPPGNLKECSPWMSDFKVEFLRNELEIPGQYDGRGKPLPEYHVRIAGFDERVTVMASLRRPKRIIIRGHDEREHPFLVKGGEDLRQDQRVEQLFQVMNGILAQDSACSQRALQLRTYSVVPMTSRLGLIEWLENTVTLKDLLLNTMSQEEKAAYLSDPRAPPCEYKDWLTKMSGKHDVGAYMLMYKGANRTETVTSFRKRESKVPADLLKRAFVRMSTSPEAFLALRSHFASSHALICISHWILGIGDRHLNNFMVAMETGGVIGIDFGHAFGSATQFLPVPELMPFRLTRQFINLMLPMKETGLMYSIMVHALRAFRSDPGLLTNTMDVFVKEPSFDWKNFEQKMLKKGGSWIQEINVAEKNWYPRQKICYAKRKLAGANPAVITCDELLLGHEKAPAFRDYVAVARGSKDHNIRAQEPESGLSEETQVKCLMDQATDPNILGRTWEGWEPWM
UniProt Q9Y265: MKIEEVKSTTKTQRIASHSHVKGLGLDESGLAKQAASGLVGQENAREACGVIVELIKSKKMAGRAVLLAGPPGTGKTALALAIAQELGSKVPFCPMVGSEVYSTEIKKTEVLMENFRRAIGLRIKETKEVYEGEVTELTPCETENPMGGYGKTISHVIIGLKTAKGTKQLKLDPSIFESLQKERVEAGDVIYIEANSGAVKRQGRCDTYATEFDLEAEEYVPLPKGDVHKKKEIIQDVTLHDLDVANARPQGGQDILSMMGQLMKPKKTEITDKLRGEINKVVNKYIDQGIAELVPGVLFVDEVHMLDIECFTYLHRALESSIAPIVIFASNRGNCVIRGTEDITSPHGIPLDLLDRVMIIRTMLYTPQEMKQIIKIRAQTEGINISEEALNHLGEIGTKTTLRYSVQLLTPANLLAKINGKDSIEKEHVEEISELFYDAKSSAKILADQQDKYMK

Columns and labels:
GFP-TRIM29 = target: T1, GFP-TRIM29 (UniProt Q14134); assay: affinity purification with mass spectrometry; GFP-Trap of GFP-TRIM29 (GFP as control) from stably expressing H69 SCLC cells lysed in NP-40 buffer; LC-MS/MS
T1 sequence: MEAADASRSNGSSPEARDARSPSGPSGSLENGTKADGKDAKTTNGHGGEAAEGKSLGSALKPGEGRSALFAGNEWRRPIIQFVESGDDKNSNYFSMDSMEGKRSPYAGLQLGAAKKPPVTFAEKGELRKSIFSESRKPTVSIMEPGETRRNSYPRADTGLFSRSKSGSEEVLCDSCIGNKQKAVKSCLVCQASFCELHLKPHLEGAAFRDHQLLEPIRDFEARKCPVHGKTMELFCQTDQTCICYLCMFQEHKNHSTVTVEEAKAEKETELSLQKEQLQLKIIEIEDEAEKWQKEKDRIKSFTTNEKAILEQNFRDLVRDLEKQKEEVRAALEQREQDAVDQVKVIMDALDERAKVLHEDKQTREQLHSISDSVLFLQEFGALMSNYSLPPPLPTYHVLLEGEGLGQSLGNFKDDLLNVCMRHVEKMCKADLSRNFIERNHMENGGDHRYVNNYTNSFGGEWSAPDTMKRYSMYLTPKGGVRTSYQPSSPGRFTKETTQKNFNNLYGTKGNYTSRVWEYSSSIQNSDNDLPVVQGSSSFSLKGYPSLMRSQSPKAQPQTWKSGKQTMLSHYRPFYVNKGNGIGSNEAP

GFP-NFIB-WT (mouse) = GFP-NFIB-WT (mouse) (UniProt P97863); assay: affinity purification with mass spectrometry; GFP-Trap of GFP-NFIB-WT or GFP-NFIB-R388K from transiently transfected HeLa cells lysed in NP-40 buffer 24 h after transfection; LC-MS/MS

binding (GFP-TRIM29): binds
Molecule: PRMT1 (from UniProt Q99873 1-371)

binding (GFP-TRIM29): binds
Molecule: XRCC5 (from UniProt P13010 1-732)

binding (GFP-TRIM29): binds
Molecule: XRCC6 (from UniProt P12956 1-609)

The next lines start with the molecule.

Molecule: DNA-PK (from UniProt P78527 1-4128)
binding (GFP-TRIM29): binds

Molecule: NFIB (endogenous) (from UniProt O00712 1-420)
binding (GFP-TRIM29): binds

Molecule: RUVBL1 (from UniProt Q9Y265 1-456)
binding (GFP-TRIM29): binds

B1: TRIM29 (endogenous) (protein, UniProt Q14134 1-588)
chain: T1 sequence
binding (GFP-NFIB-WT (mouse)): binds
